Data taken from PubChem BioAssay AID504444 (National Center for Advancing Translational Sciences (NCATS), 2011).
Among all 360,000 compounds or so, about 7,500 (2.1%) were called active. Inconclusive results, whose numbers are uncertain, are shown with a selection of clear calls. Calls come from the whole dose curve; as a rule, active = well fitted inhibition curve with a large enough effect; inconclusive = small, poorly fitted or top-dose-only effect, or effect the other way; inactive = flat fitted curve, though single readings scatter. Potencies beside an inconclusive call are fits to weak or partial responses and may not hold up.

Assay: Nrf2 qHTS screen for inhibitors; note: nearly all actives have a fitted effect of over 60% in size
Details: A549 ARE-Fluc reporter, luciferase luminescence, 18-24 h; activity change, negative = inhibition: at 46 µM (top of the series)
In short: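 A549 ARE_Fluc cells (5000/well, 5% FBS OPTI-MEM) pre-incubated 2 h, then treated with compounds 18-24 h at 37C/5% CO2 in concentration-response. CellTiter-Fluor viability read first; BugLite luciferase luminescence after 15 min at room temperature gives Nrf2 activity.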
% is set by controls: 0 for no effect and ±100 for the full control effect; potency is the fitted concentration of half-maximal effect.

Question: For `C[C@@H]1CN([C@@H](C)CO)C(=O)c2cc(NS(=O)(=O)c3cccs3)ccc2O[C@H]1CN(C)Cc1ccc(C(F)(F)F)cc1`, which Potency is on record?
Answer: inconclusive: 16.4 µM [falling, partial curve, poor fit]

Question: With `COc1ccc(Cc2nnc(NC(=O)Nc3ccccc3F)s2)cc1OC` as the molecule, how does the Potency read?
Answer: inconclusive: 18.4 µM [falling, single point]

Question: Which “activity change, negative = inhibition” value does the source give for `CCOC(=O)c1cc(C#N)c(SCC(=O)O)[nH]c1=O` here?
Answer: inactive: -2.25%

Question: Which “activity change, negative = inhibition” value does the source give for `CCOc1ncccc1C(=O)Nc1cc(S(=O)(=O)N2CCOCC2)ccc1OCC(F)(F)F` here?
Answer: inactive: 2.07%

Question: Which Potency does the source give for `Nc1nc2sc3c(c2cc1C(=O)NCC(=O)O)CCCC3` here?
Answer: active: 8.2 µM

Question: With `O=C1OC(c2ccc(Br)cc2)=N/C1=C\c1ccco1` as the molecule, how does the Potency read?
Answer: inconclusive: 7.31 µM [activator, partial curve, poor fit]

Question: For `O=C(O)c1cc(-c2ccco2)nn1-c1cccc(Cl)c1`, which “activity change, negative = inhibition” value is on record?
Answer: inactive: -7.14%

Question: For `O=C1CCCCC1C(=O)c1cn(-c2ccc(Cl)c(Cl)c2)nn1` (stereo unspecified), which Potency is on record?
Answer: inconclusive: 10.3 µM [activator, partial curve]

Question: For `Cc1cc2cc(CN(CCCN3CCOCC3)C(=O)NC3CCCCC3)c(=O)[nH]c2cc1C`, which “activity change, negative = inhibition” value is on record?
Answer: inactive: 19.8%

Question: Which Potency does the source give for `O=C(CP(=O)(c1ccccc1)c1ccccc1)N/N=C/c1cc(Br)cc(Br)c1O` here?
Answer: inconclusive: 29.1 µM [falling, single point]

Question: With `CCC(C(=O)NC1CCCC1)N(Cc1cccs1)C(=O)Cn1nnc(-c2ccc(OC)c(OC)c2)n1` (stereo unspecified) as the molecule, how does the Potency read?
Answer: inconclusive: 14.6 µM [falling, single point]

Question: For `COc1ccc(CC(=O)N[C@@H]2c3cc(OC)c(OC)cc3C[C@H]2OCc2ccccc2)cc1`, which Potency is on record?
Answer: inconclusive: 9.2 µM [activator, partial curve]

Question: Which Potency does the source give for `CCCn1c(SCc2nc(-c3ccccc3OCC)no2)nnc1-c1ccc(Cl)cc1` here?
Answer: inconclusive: 18.4 µM [falling, single point]

Question: For `Cc1ccc(NC(=O)Cn2cc(C=O)c3ccccc32)cc1`, which “activity change, negative = inhibition” value is on record?
Answer: inactive: 1.54%

Question: Which Potency does the source give for `Cc1c(C)c(C)c(CO/N=C/c2cccs2)c(C)c1C` here?
Answer: inconclusive: 9.2 µM [falling, partial curve, poor fit]

Question: For `O=C1CCCN1c1ncc(S(=O)(=O)c2ccc([N+](=O)[O-])cc2)s1`, which Potency is on record?
Answer: inconclusive: 20.6 µM [falling, partial curve, poor fit]

Question: For `CCOC(=O)c1ccc(NC(=O)C(Cc2ccccc2)N2Cc3ccccc3C2=O)cc1` (stereo unspecified), which Potency is on record?
Answer: inconclusive: 29.1 µM [activator, single point]

Question: For `CCc1ccc(-c2cn3c(n2)sc2cc(C(=O)NCCC4=CCCCC4)ccc23)cc1`, which “activity change, negative = inhibition” value is on record?
Answer: inactive: 13.2%

Question: Which Potency does the source give for `CCCOc1ccc(C(=O)Nc2ccc3oc(-c4cccc(Cl)c4Cl)nc3c2)cc1` here?
Answer: active: 5.8 µM

Question: For `O=C(Nc1ccc(N2CCOCC2)cc1)c1cn2ccccc2n1`, which Potency is on record?
Answer: inconclusive: 29.1 µM [falling, single point]

Question: Which Potency does the source give for `c1ccc(-c2ccc(C3=Nn4c(nnc4-c4cc(-c5ccccc5)n[nH]4)SC3)cc2)cc1` here?
Answer: inconclusive: 29.1 µM [falling, single point]

Question: For `COc1cccc(-c2nc(CS(=O)(=O)CC(=O)N3CCCCC3)c(C)o2)c1`, which Potency is on record?
Answer: inconclusive: 29.1 µM [falling, single point]

Question: Which Potency does the source give for `Clc1ccc(Cn2c(-c3cccnc3Cl)nc3ccccc32)c(Cl)c1` here?
Answer: active: 18.4 µM

Question: Which Potency does the source give for `O=C(CCS(=O)(=O)c1nc(-c2cccs2)cc(C(F)(F)F)n1)Nc1cc(Br)ccc1O` here?
Answer: inconclusive: 20.6 µM [falling, single point]

Question: With `CC(C)c1ccc(NC(=O)Cn2cc(S(=O)(=O)Cc3cccc(Cl)c3)c3ccccc32)cc1` as the molecule, how does the Potency read?
Answer: inconclusive: 13 µM [falling, partial curve, poor fit]

Question: For `Cc1nc(N2CCCCC2)c2c(C)c(C(=O)Nc3cccc(C(F)(F)F)c3)sc2n1`, which Potency is on record?
Answer: active: 23.1 µM

Question: For `CC(C)OC(=O)CN1CCN(c2ccc(Cl)cc2)CC1`, which Potency is on record?
Answer: active: 16.4 µM

Question: For `CCn1c(C)[n+](CCOCC[n+]2c(C)n(CC)c3cc(Cl)c(Cl)cc32)c2cc(Cl)c(Cl)cc21`, which “activity change, negative = inhibition” value is on record?
Answer: inactive: 5.42%

Question: Which Potency does the source give for `O=C(COc1ccccc1)N1CCc2ccccc21` here?
Answer: inconclusive: 11.6 µM [activator, partial curve]

Question: With `Cc1cc(C)nc(NC(=S)Nc2ccc(Br)cc2Cl)c1` as the molecule, how does the Potency read?
Answer: inconclusive: 4.11 µM [falling, partial curve, poor fit]

Question: Which Potency does the source give for `CN(CC(=O)Nc1ccccc1Br)C(=O)Cn1[nH]c(=O)c2ccccc2c1=O` here?
Answer: inconclusive: 4.61 µM [falling, full curve, poor fit]

Question: Which Potency does the source give for `COc1cccc2cc(C(=O)NCc3ccco3)c(=Nc3ccc(C(=O)O)cc3)oc12` here?
Answer: inconclusive: 32.6 µM [falling, single point]

Question: Which Potency does the source give for `O=C(NN1C(=O)c2ccccc2NC12CCCCC2)c1ccccc1` here?
Answer: inconclusive: 23.1 µM [falling, partial curve, poor fit]

Question: With `O=C(COc1ccc(S(=O)(=O)N2CCCC2)cc1Cl)NCc1ccco1` as the molecule, how does the Potency read?
Answer: inconclusive: 1.3 µM [falling, partial curve, poor fit]

Question: Which Potency does the source give for `COc1cc(CNc2ccc(N3CCCCC3)cc2)ccc1OCC(=O)NC(C)(C)C` here?
Answer: inconclusive: 20.6 µM [falling, single point]

Question: With `CC12CC(O)C3c4ccc(O)cc4CCC3C1CC/C2=N\O` (stereo unspecified) as the molecule, how does the Potency read?
Answer: inconclusive: 7.31 µM [falling, partial curve, poor fit]

Question: With `O=C(Nc1ccc(N2CCOCC2)c(Cl)c1)c1ccccc1F` as the molecule, how does the Potency read?
Answer: inconclusive: 0.517 µM [activator, full curve, poor fit]

Question: For `Oc1ccc(/C=N/n2c(-c3ccco3)csc2=Nc2cccnc2)c(O)c1`, which Potency is on record?
Answer: inconclusive: 32.6 µM [falling, single point]

Question: Which “activity change, negative = inhibition” value does the source give for `Cc1oc(-c2ccccc2)nc1CS(=O)CC(=O)NC1CCCCCC1` (stereo unspecified) here?
Answer: inactive: 10.2%

Question: Which Potency does the source give for `Cc1cc(C(=O)Nc2ccc(N3CCCC3)c(Cl)c2)ccc1[N+](=O)[O-]` here?
Answer: inconclusive: 7.31 µM [activator, partial curve, poor fit]

Question: Which Potency does the source give for `Cc1ccsc1C(=O)OCC(=O)c1cc(C)n(CC2CCCO2)c1C` (stereo unspecified) here?
Answer: inconclusive: 32.6 µM [falling, single point]

Question: With `c1ccc(CCNc2nc(-c3ccncc3)nc3ccccc23)cc1` as the molecule, how does the Potency read?
Answer: inconclusive: 23.1 µM [falling, single point]

Question: With `O=C(NCCN1CCCC1)c1ccccc1Cl` as the molecule, how does the “activity change, negative = inhibition” value read?
Answer: inactive: 12.4%

Question: With `CCN(CC)c1ccc2cc(-c3nc(-c4cccs4)no3)c(=O)oc2c1` as the molecule, how does the Potency read?
Answer: inconclusive: 1.3 µM [activator, full curve]

Question: With `Cc1ccc(NC(=O)C(=S)NCc2ccco2)cc1` as the molecule, how does the Potency read?
Answer: inconclusive: 6.51 µM [activator, full curve]

Question: With `O=C1c2ccccc2C(Nc2ccc3c(c2)OCCO3)N1Cc1ccco1` (stereo unspecified) as the molecule, how does the Potency read?
Answer: inconclusive: 20.6 µM [falling, partial curve, poor fit]

Question: Which Potency does the source give for `COc1ccc(-n2c(-c3ccc(Br)cc3)c[n+]3c2CCC3)cc1` here?
Answer: active: 4.61 µM

Question: With `CC(=O)c1ccc(N2CCN(C(=O)CCC(=O)Nc3ccc4nc(N5CCCCC5)cc(C)c4c3)CC2)cc1` as the molecule, how does the “activity change, negative = inhibition” value read?
Answer: inactive: 3.59%

Question: With `COC(=O)CNC(=O)C1CCN(S(=O)(=O)c2cccc3nsnc23)CC1` as the molecule, how does the Potency read?
Answer: inconclusive: 29.1 µM [falling, single point]

Question: With `Cc1c(NS(=O)(=O)c2ccc(N3CCCCC3)c([N+](=O)[O-])c2)c(=O)n(-c2ccccc2)n1C` as the molecule, how does the Potency read?
Answer: inconclusive: 32.6 µM [activator, partial curve, poor fit]

Question: Which Potency does the source give for `CC(=O)c1ccc(N2CCN(Cc3nc(Cc4ccccc4)no3)CC2)cc1` here?
Answer: inconclusive: 29.1 µM [falling, single point]

Question: With `CC1(C)CC(=O)c2c(nc3ccccc3c2N)C1` as the molecule, how does the “activity change, negative = inhibition” value read?
Answer: inactive: 8.85%

Question: With `COc1cccc(NC(=O)c2ccc(CN3CCOCC3)cc2)c1` as the molecule, how does the Potency read?
Answer: inconclusive: 0.206 µM [activator, full curve]

Question: With `NC(=O)CC(NC(=O)Cc1ccc(Br)cc1)c1ccc(NC2CCCC2)c([N+](=O)[O-])c1` (stereo unspecified) as the molecule, how does the Potency read?
Answer: inconclusive: 3.66 µM [falling, full curve]

Question: For `Cc1sc(NC(=O)C2=COCCO2)nc1-c1ccc(Cl)cc1`, which Potency is on record?
Answer: inconclusive: 3.26 µM [activator, single point]

Question: With `Cc1sc2ncn(CC(=O)Nc3cccc(C(F)(F)F)c3)c(=O)c2c1S(=O)(=O)N1CCN(C)CC1` as the molecule, how does the activity change, negative = inhibition read?
Answer: inactive: 3.69% [at 9.27 µM]

Question: With `O=C(COC(=O)c1ccccn1)Nc1c(Cl)cccc1Cl` as the molecule, how does the Potency read?
Answer: inconclusive: 6.51 µM [activator, single point]

Question: With `CCCOc1ccc(N2C(=O)CC(SC(=N)N3N=C(c4ccccc4)CC3c3ccccc3)C2=O)cc1` (stereo unspecified) as the molecule, how does the Potency read?
Answer: inconclusive: 29.1 µM [falling, single point]

Question: Which Potency does the source give for `COC(=O)c1ccccc1NC(=O)CSc1ccc(C)cc1` here?
Answer: inconclusive: 25.9 µM [activator, single point]

Question: For `COc1ccc2cc(CN(Cc3ccco3)Cc3nnnn3C3CCCCC3)c(=O)[nH]c2c1`, which Potency is on record?
Answer: inconclusive: 29.1 µM [falling, single point]

Question: With `CN1/C(=C\C=C(C#N)C#N)C(C)(C)c2ccccc21` as the molecule, how does the “activity change, negative = inhibition” value read?
Answer: inactive: -17.2%

Question: Which Potency does the source give for `COc1ccc(CNC(=O)c2cccc(S(=O)(=O)N3CCCCC3)c2)cc1OC` here?
Answer: active: 5.17 µM

Question: For `COc1cc(S(=O)(=O)NCc2ccncc2)c(OC)cc1Br`, which Potency is on record?
Answer: inconclusive: 14.6 µM [falling, partial curve]

Question: For `COc1ccc2c(c1)cc1c(=O)n(CC(=O)NC(C)C)nc(C)n12`, which “activity change, negative = inhibition” value is on record?
Answer: inactive: 4.9%

Question: With `O=C(CCCNC(=O)c1ccc(Cl)cc1)Nc1cccc(S(=O)(=O)N2CCCCC2)c1` as the molecule, how does the Potency read?
Answer: inconclusive: 25.9 µM [falling, single point]

Question: With `Cc1ccc(NC(=S)N2CCCC(CO)C2)c(C)c1` (stereo unspecified) as the molecule, how does the Potency read?
Answer: inconclusive: 20.6 µM [activator, single point]
